# Data as given in PubChem BioAssay AID504332 (National Center for Advancing Translational Sciences (NCATS), 2011).
# By UniProt entry, the sequences of proteins in these tests, tags left out. Residues count along the entry.
# UniProt Q96KQ7, 913-1193 limits assumed: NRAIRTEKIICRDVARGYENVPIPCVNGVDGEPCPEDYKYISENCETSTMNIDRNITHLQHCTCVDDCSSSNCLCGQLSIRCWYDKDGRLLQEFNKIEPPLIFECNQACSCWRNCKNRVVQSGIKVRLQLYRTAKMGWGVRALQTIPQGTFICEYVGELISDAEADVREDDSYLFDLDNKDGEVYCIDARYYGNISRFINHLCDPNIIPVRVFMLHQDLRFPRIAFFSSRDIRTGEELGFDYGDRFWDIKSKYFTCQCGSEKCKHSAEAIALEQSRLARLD
# Hit rate of the full screen: of about 350,000 compounds, about 31,000 (8.9%) were called active. These results got no clear call from the source, so the numbers are uncertain. The call rests on the fitted dose curve; in most records, active means well fitted inhibition curve with a large enough effect; inconclusive means small, poorly fitted or top-dose-only effect; inactive means no such curve, though single readings can be large or run the other way.
# Biological target: Histone-lysine N-methyltransferase EHMT2 (Homo sapiens) (UniProt Q96KQ7)
# Test: qHTS Assay for Inhibitors of Histone Lysine Methyltransferase G9a; on Potency: nearly all actives have a fitted effect of over 75% in size
# Details: G9a H3K9 monomethylation, AlphaScreen, 2 h
# Potency means the concentration at half of the fitted maximal effect.
row,Structure (SMILES),Potency
1,COc1ccc(CN(CCCl)CCCl)cc1Cl,inconclusive: 31.6 µM
2,N#CC1(Nc2ccccc2)CCN(CCc2ccccc2)CC1,inconclusive
3,CCOC(=O)N1CCC(Nc2cccc(C)c2)CC1,inconclusive: 79.4 µM
4,COc1ccc(C(=O)NCC2(N3CCCCC3)CCCCC2)cc1,inconclusive: 79.4 µM
5,CSc1ccccc1C(=O)NCC1(N2CCCCC2)CCCCC1,inconclusive: 25.1 µM
6,O=C(NCC1(N2CCCCC2)CCCCC1)c1ccc(Cl)nc1,inconclusive: 63.1 µM
7,CCC(CO)(C(=O)OC1CN2CCC1CC2)c1ccccc1 (stereo not given),inconclusive: 31.6 µM
8,Fc1ccccc1NC1CCN(Cc2ccccc2)CC1,inconclusive: 39.8 µM
9,CN(C)c1ccc(C(=O)NCC2(N3CCCCC3)CCCCC2)cc1,inconclusive: 70.8 µM
10,CCOC(=O)N1CCC(Nc2ccc(C)cc2)CC1,inconclusive: 89.1 µM
